Out of some 52,000 sequences screened, about 210 (0.4%) were called active.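 How the source made its calls: active means gene whose silencing raises cell survival under the drug, median off-target-corrected z-score across its silencing RNAs 2 or more; inactive means the rest.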 This is one part of the list.

A short description of the assay: Resistance to Poly (ADP-Ribose) Polymerase inhibitor: Gene Identification via Genome-wide siRNA Screen. The settings on record: mouse BRCA2 R2336H ES cells, olaparib, CellTiter-Glo viability; hits give high values. The method in brief: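 Mouse BRCA2 R2336H ES cells were reverse-transfected with siRNA (20 nM final), treated at 48 h with 500 nM olaparib, and read by CellTiter-Glo after 72 h. Scores: MAD-based z per siRNA, median per gene, seed off-target correction.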
(ATP-based viability assays read luminescence as a measure of living cells.)
In the case of “GGAGGUGAUGAUAAUCAAUTT against 6720458F09Rik”, the z-score was inactive: 0.579.

As for “GAGACCUUCACAAAGUUGUTT against 2810036L13Rik”, the z-score was inactive: 0.135. Take GGUAAAGAUCUUUGAAGAGTT against Tnip1: the z-score was inactive: -0.463. The same measure for GACUAAACAGAUCUUCUCUTT against Klra15: inactive: 0.285; for GGAUAUUUUCAAUGCUGUUTT against Large: inactive: 2.29. Take GAAAGUGGAAGCCACCAGUTT against Olfr110: the z-score was inactive: -0.546.

Regarding GGGCUUCAGUAGUCUUCAATT against Sprr2j, the z-score is inactive: -1.88. Take GGAUUUGAAAUAGGAAUAGTT against Sh3yl1: the z-score was inactive: 0.551.

With “GGCUUCUAAAAAUUUCACATT against A030012E10”, the z-score is inactive: -0.16. Next, CCUCUCCUGGUCUUAACAGTT against Rem2: inactive: -1.76. The same measure for GGAUAAGCGUAUUUCUUUGTT against Olfr1015: inactive: 0.516. GCAAUUAGAGAUGAAGCAATT against Ndufaf1: the z-score was inactive: -1.87.

On to GCGAAUGAGAUACGAGUACTT against Ust, for which the z-score was inactive: -2.09. Take “GGGAUACUUUCUUCGAGGATT against 6330407J23Rik”: the z-score was inactive: -0.334.

In the case of CCGAAAAAUAUGUUUUCCGTT against Mettl4, the z-score was inactive: -0.668.

In the case of “GGCACAAUUAGCUAAGAAUTT against D930038M13Rik”, the z-score is inactive: 1.36. The same measure for “CGCACAUUCUUCAUAACACTT against 3110005O21Rik”: inactive: 1.34. GAUGCUAGUGAACCUCAUGTT against Olfr1020: the z-score is inactive: -0.814.

Take “GGAGGUGUGGGUACCUUCUTT against 4732481H14Rik”: the z-score is inactive: -0.916.

As to “CGCCAGAGUGCAUAGUCUUTT against B230380D07Rik”, the z-score was inactive: -0.832. The same measure for GGUAUUCAGUAUUUUGACUTT against Olfr196: inactive: 0.94; for CCGUAUUUGGACUGAGCAATT against Chic2: inactive: 1.75; for GGCUGCUGACAUUUUCAUCTT against Lrrc28: inactive: 0.0806.

With GGAUGUCAGAGAUAUAUUUTT against Fbxo18, the z-score was inactive: 0.931. Take CCAGGAGUCGAGUGAUGGUTT against Rtl1: the z-score is inactive: -0.961. The same measure for GGGAAAUUGUUCGUGACAUTT against Actg: inactive: 0.431; for GCCACCAAACGAUGGUAUCTT against D5Ertd40e: inactive: -1.94; for UGCUGGUGUCGUUAUGAAGTT against Pla2g12a: inactive: -1.29. CCUUAUGGCCUACGACUUCTT against Chit1: the z-score was inactive: -0.482. The same measure for CGUUGCUGAGAACGAGUCGTT against Pomc1: inactive: -0.338. The same measure for “CCAGUCGUGAACUUGAAAGTT against 2410016F19Rik”: inactive: 0.448; for “GGCCAGUUUAUGGGAUUUUTT against 2610039C10Rik”: inactive: -1.46.

For the sequence “GGUUCAAAUGUUCUCCAUATT against 9530080O11Rik”, the z-score is inactive: 1.23. The same measure for GGUGGAGCUGCUAUCACAUTT against AI848100: inactive: -0.215. The same measure for GGCCAAUAUAGGUUAUAGATT against Anapc11: inactive: 1.79; for GGUCUCAAGGACAAAAAAGTT against Sult3a1: inactive: 1.19; for GCAUCAUGGUCACAAAUGGTT against Ncr1: inactive: -0.546.

As to GGUGAAUUUCCUUCUACAUTT against Tas1r1, the z-score is inactive: 0.18. As for GGAGCUAAUGGAAAACGGCTT against Lcn7, the z-score is inactive: 0.234. The same measure for CCUUACCCUGUGUAUCUUUTT against Nat6: inactive: -1.31. “CCCUUGCUUGCUAAGAUUUTT against 1200016D23Rik”: the z-score was inactive: -0.709. Next, “GCACCGAGUGGAAUAAUCATT against C820005L12Rik”: inactive: 0.498. Consider “GGACAAUGGAGCUCAAGUCTT against 2310042G06Rik”, for which the z-score is inactive: 0.406. Take GGUGAUGCAAGUGGUUCGGTT against Elmo3: the z-score was inactive: -0.641.

On to GGAGUGAACCUUUGAAAGUTT against Rbak, for which the z-score is inactive: 0.696. Next, GGUUGGACACGAAAGCUUATT against Mecp2: inactive: -3.23. Turning to GGACAGCCAUCUUGAUUUATT against Gstt2, the z-score is inactive: -0.269. For the sequence GCUACAAUCUAGAACAAGATT against Olfr361, the z-score is inactive: 0.116. The same measure for GGCGAAGGGCAAGAAUAAATT against Hes1: inactive: 0.252.

GGAGAACCCAUUAAAGAAATT against Amd1: the z-score was inactive: -0.0366. The same measure for CCUAGUGAUUAAAGGGAUGTT against Tessp3: inactive: -1.92; for GGUCUUGGUAUCAUAUAUGTT against D0H4S114: inactive: 0.754; for GGAUCCUUCUCUGAAGCAGTT against Olfr657: inactive: -2.03.

For the sequence GGACUAUGGCAAAGAAUCUTT against Rps12, the z-score is inactive: -3.24.

Take “GGUUUGUGAAUCUUAUCUCTT against 5830482G23Rik”: the z-score is inactive: -0.654. Next, CGCGAAGGGAAGGGUUGUATT against Pfn4: inactive: -1.45.

As to CCAUUCAAUGGUAACUGAATT against Olfr973, the z-score was inactive: -1.95. On to GGUCGACUUAAGAUAAUAATT against Itgb6, for which the z-score is active: 1.94. Next, GGUGGUUCUCAGCUGUGUATT against Arhgef18: inactive: -2.26; CGGUGUCACCCAUGUUAUCTT against Arp3b: inactive: -0.351.

“GCACUUCGAAGAAAUAAAATT against 1110064P04Rik”: the z-score is inactive: 0.941. Next, CCAUUUUGCCUGUGAUAUGTT against Olfr1254: inactive: 1.02; CCAAGUGGAUCGAAGCCCATT against Pp11r: inactive: 0.899. On to GGGCUUAUUGGAAGUCAGATT against BC017545, for which the z-score was inactive: -0.858.

With “CGAAAUCCAUAGAUUUACUTT against 4930563E19Rik”, the z-score is inactive: 0.443.

Regarding GGAUGGAAGCGUAAAUUUCTT against Angpt4, the z-score is inactive: 0.186.

The values are drawn from PubChem BioAssay AID1347423 (Functional Genomics Laboratory (NCATS/FGL), 2020).
